Results taken from PubChem BioAssay AID540256 (National Center for Advancing Translational Sciences (NCATS), 2011).
The campaign covered roughly 300,000 compounds. About 3,700 (1.2%) were called active. Inconclusive results, whose numbers are uncertain, are shown with a selection of clear calls. Calls come from the whole dose curve; tested in HEK293 cells. A potency beside an inconclusive call is a rough fit, not a confirmed value.

assay: qHTS for Inhibitors of binding or entry into cells for Lassa Virus; conditions: Lassa virus pseudotype entry inhibition, cell reporter; activity change, negative = inhibition: at 37.9 µM (top of the series) unless noted; note: nearly all actives have a fitted effect of over 50% in size
% is set by controls: 0 for no effect and ±100 for the full control effect; potency is the fitted concentration of half-maximal effect.

| Compound | activity change, negative = inhibition | Potency |
| --- | --- | --- |
| CCn1c(SCC(=O)Nc2ccc(C(C)=O)cc2)nc2ccccc21 | inactive: 4.53% |  |
| Cc1snnc1C(=O)NC(=S)Nc1ccccc1 | inactive: 18.4% [at 46.1 µM] |  |
| CCN(C(=O)c1ccco1)c1nnc(-c2ccc(OC)cc2)s1 |  | inconclusive: 1.26 µM [activator, single point] |
| Cc1cc(SCC(=O)Nc2ncc(Cl)cc2Cl)nc2ccccc12 |  | inconclusive: 22.4 µM [inhibitor, single point] |
| CCOC(=O)C(Oc1ccc2c(-c3ccccc3)cc(=O)oc2c1C)c1ccccc1 (configuration not stated) |  | inconclusive: 6.31 µM [inhibitor, single point] |
| Cn1cccc1C(=O)NC(=O)COC(=O)c1ccc(S(C)(=O)=O)c([N+](=O)[O-])c1 |  | inconclusive: 12.6 µM [inhibitor, partial curve, poor fit] |
| Cc1ccc(-c2c(C#N)c(N)nc3c2CCCCCC3)o1 |  | inconclusive: 11.6 µM [inhibitor, partial curve, poor fit] |
| Cc1cc(N2CCC(C)CC2)nc2ccc(NC(=O)CCC(=O)N3CCN(c4ccccc4F)CC3)cc12 |  | inconclusive: 12.6 µM [inhibitor, single point] |
| NC(=O)/C=C\c1cn(-c2ccccc2)nc1-c1ccc2c(c1)OCCO2 |  | inconclusive: 12.6 µM [inhibitor, partial curve, poor fit] |
| Cc1ccc2c(c1)/C(=C/c1ccccc1)C(=O)N2 |  | active: 10 µM |
| O=C(NCCCN1CCOCC1)c1cc(-c2ccc(F)cc2)on1 | inactive: -4.45% |  |
| Cc1nc(-c2ccc(C)c(S(=O)(=O)N3CCC(C(=O)NCc4ccc(F)cc4)CC3)c2)no1 |  | inconclusive: 3.55 µM [inhibitor, single point] |
| CCc1ccc(NC(=O)N(CCOC)C2CCN(C(C)=O)CC2)cc1 | inactive: 14.1% |  |
| COC(=O)c1scc(C#N)c1N/N=C(\C#N)S(=O)(=O)c1ccc(Cl)cc1 |  | inconclusive: 12.6 µM [inhibitor, partial curve] |
| COC(=O)C1CCCCN1C(=O)c1ccc2oc(Cc3ccccc3)nc2c1 (configuration not stated) | inactive: -2.04% |  |
| CCN(C(=O)CC(C)C)c1nnc(Cn2nnc3ccccc32)s1 |  | inconclusive: 14.1 µM [inhibitor, partial curve, poor fit] |
| Cc1ccc(NC(=O)Cn2nc(-c3ccccc3)nc(Cc3ccccc3)c2=O)cc1 |  | inconclusive: 7.94 µM [activator, partial curve, poor fit] |
| O=S(=O)(c1ccc(F)cc1)c1snnc1-c1ccccc1 |  | inconclusive: 15.8 µM [inhibitor, partial curve, poor fit] |
| CCCCNCCOCCOc1ccccc1-c1ccccc1 |  | inconclusive: 0.794 µM [activator, single point] |
| Cc1cccc(NC(=O)c2c(NC(=O)c3ccco3)sc3c2CCC(C)C3)c1 (configuration not stated) |  | inconclusive: 2.82 µM [activator, full curve, poor fit] |
| CCOC(=O)C1CCN(Cc2cc(=O)n3c(-c4ccccc4)csc3n2)CC1 | inactive: -1.38% |  |
| O=C(NNC(=O)C12CC3CC(CC(C3)C1)C2)c1ccccn1 |  | active: 7.94 µM |
| O=C(CSc1nnc(-c2cccnc2)n1-c1ccccc1)Nc1ccccn1 | inactive: 16.2% |  |
| COc1cccc(NC(=O)Cn2c(=O)n(CCc3cccc(C)c3)c(=O)c3ccccc32)c1 | inactive: 12.9% [at 46.1 µM] |  |

| Compound | activity change, negative = inhibition | Potency |
| --- | --- | --- |
| Cc1ccc(NC(=O)CN(c2ccc(C)cc2)S(=O)(=O)c2cccc3nonc23)cc1 |  | inconclusive: 14.6 µM [inhibitor, partial curve, poor fit] |
| CC(=O)Nc1cccc(Nc2nc(-c3cccs3)nc3ccccc23)c1 |  | inconclusive: 35.5 µM [inhibitor, single point] |
| C=CCOc1ccc(C(c2c(C(=O)O)[nH]c3ccccc23)c2c(C(=O)O)[nH]c3ccccc23)cc1 | inactive: 3.03% |  |
| COc1ccc(-n2c(C)c(C(=O)O)c3cc(OC)c4ccccc4c32)cc1 |  | inconclusive: 14.6 µM [inhibitor, partial curve] |
| COc1ccc(C(=O)C2CCCN(Cc3ccon3)C2)cc1OC (configuration not stated) |  | inconclusive: 2.51 µM [activator, partial curve, poor fit] |
| COc1ccc(CCNC(=O)CSc2ccc(-c3cccs3)nn2)cc1OC |  | inconclusive: 3.16 µM [activator, partial curve, poor fit] |
| Cc1c(NS(C)(=O)=O)c(=O)n(-c2ccccc2)n1C |  | inconclusive: 25.1 µM [activator, single point] |
| CC1CCCCC1NC(=O)NC(=O)COC(=O)c1ccc(OC(F)F)cc1 (configuration not stated) |  | inconclusive: 1.26 µM [inhibitor, single point] |
| O=C(OCc1c(F)cccc1Cl)c1cccnc1Cl | inactive: 4.18% |  |
| COc1ccc(-n2nnnc2SCC(=O)NCCc2ccc(OC)c(OC)c2)cc1 | inactive: -28.2% |  |
| O=c1cc(-c2ccccc2)oc2ccc(Cl)cc12 |  | inconclusive: 5.62 µM [inhibitor, single point] |
| S=C(NCc1ccc(Cl)cc1Cl)Nc1ccccc1 |  | inconclusive: 4.47 µM [inhibitor, single point] |
| O=C1CCCN1CCC1CCN(C(=O)Nc2ccccc2)CC1 |  | inconclusive: 32.6 µM [activator, single point] |
| Cc1ccc(C(=O)N/C(=C\c2ccc(-c3ccc(Cl)cc3)o2)C(=O)NCCCN(C)C)cc1 |  | inconclusive: 35.5 µM [inhibitor, single point] |
| O=C(Cc1ccc(Cl)cc1)Nc1ccc(-c2cc3ccccc3oc2=O)c(Cl)c1 |  | inconclusive: 8.91 µM [inhibitor, partial curve, poor fit] |
| CC(=O)N[C@@H](C)C(=O)OC(C)C(=O)Nc1cccc([N+](=O)[O-])c1 (some centres not stated) | inactive: 22.3% |  |
| Cc1cccc(Cn2c(=O)n(Cc3ccccc3)c(=O)c3sc4ccccc4c32)c1 | inactive: -12.4% [at 46.1 µM] |  |
| CC(C)c1cccc(C(C)C)c1NC(=S)Nc1cccc(Cl)c1 |  | inconclusive: 35.5 µM [inhibitor, single point] |
| O=C(Cc1ccccc1)N/N=C/c1ccc2c(c1)OCO2 |  | inconclusive: 2.82 µM [activator, partial curve, poor fit] |
| CCCCn1c(CNC(=O)C23CC4CC(CC(C4)C2)C3)nnc1SCC(=O)Nc1ccc(F)cc1 | inactive: -0.0732% [at 46.1 µM] |  |
| CCCSc1nc(C)c2cc(C)cc(C)c2n1 | inactive: 12.5% |  |
| Cc1ccc(NC(=O)CSc2nc3ccccc3n2CC(=O)N(C)C2CCCCC2)cc1C |  | inconclusive: 10 µM [inhibitor, partial curve, poor fit] |
| COc1ccccc1-c1nnc(NC(=O)C2=COCCO2)o1 | inactive: 8.56% |  |
| Cc1nc2c(oc3ccccc32)c(=O)o1 |  | inconclusive: 6.51 µM [activator, full curve] |

Single records (already shown):
CCCCn1c(CNC(=O)C23CC4CC(CC(C4)C2)C3)nnc1SCC(=O)Nc1ccc(F)cc1 is entered as activity change, negative = inhibition: inactive: -0.0732% [at 46.1 µM]
CC1CCCCC1NC(=O)NC(=O)COC(=O)c1ccc(OC(F)F)cc1 (configuration not stated) is entered as Potency: inconclusive: 1.26 µM [inhibitor, single point]
S=C(NCc1ccc(Cl)cc1Cl)Nc1ccccc1 is entered as Potency: inconclusive: 4.47 µM [inhibitor, single point]
COc1ccccc1-c1nnc(NC(=O)C2=COCCO2)o1 is entered as activity change, negative = inhibition: inactive: 8.56%

More structures follow.

| Compound | activity change, negative = inhibition | Potency |
| --- | --- | --- |
| CC(=O)c1ccc(NC(=O)C(C)Sc2nnc(C3CC3)n2C2CC2)cc1 (configuration not stated) | inactive: 20.5% |  |
| COc1ccc(-n2nnnc2-c2nc3ccccc3s2)cc1 |  | inconclusive: 11.2 µM [inhibitor, partial curve] |
| CC(C)c1ccc(/C=C/C(=O)Nc2nncs2)cc1 |  | active: 8.91 µM |
| COc1ccc(OCC(=O)Nc2cc(OC)ccc2N2CCCCC2)cc1 | inactive: -0.006% |  |
| CC(C)(C)c1csc(NC(=O)Cc2ccc(S(=O)(=O)N3CCOCC3)s2)n1 |  | inconclusive: 35.5 µM [inhibitor, single point] |
| Cn1c(CN2CCOCC2)nc2cc(NC(=O)c3ccccc3Cl)ccc21 | inactive: 28.6% |  |
| Cc1ccc2[nH]c(=O)c(CN(Cc3cccs3)S(=O)(=O)c3ccc4c(c3)OCCO4)cc2c1 | inactive: -0.107% |  |
| CC(=O)Nc1ccc(S(=O)(=O)N/N=C/c2ccc(C)s2)cc1 |  | inconclusive: 11.2 µM [activator, partial curve, poor fit] |
| CCCOc1ccc(/C=N/n2nnnc2N)cc1OC | inactive: -3.54% [at 46.1 µM] |  |
| Cc1ccc(S(=O)(=O)NC2(C(F)(F)F)NC(=O)N(c3ccccc3F)C2=O)cc1 (configuration not stated) |  | inconclusive: 35.5 µM [activator, single point] |
| COc1ccc(/C(C)=N/NC(=O)c2cc(-c3cccnc3)nc3ccccc23)cc1 | inactive: 0.136% |  |
| Cc1cc(C(=O)CN2C(=O)NC(c3ccccc3)(c3ccccc3)C2=O)c(C)n1Cc1ccco1 | inactive: -1.3% |  |
| O=C(Nc1nccs1)C(c1ccccc1)N1CCCC1 (configuration not stated) | inactive: 10.1% |  |
| COc1ccccc1N1CCN(c2ccc3ccccc3n2)CC1 |  | inconclusive: 14.1 µM [inhibitor, single point] |
| Cc1ccc(S(=O)(=O)C(CNS(=O)(=O)c2ccc(F)c(C)c2)c2cccs2)cc1 (configuration not stated) |  | inconclusive: 35.5 µM [inhibitor, single point] |
| CCOC(=O)C1CCN(C(=O)COC(=O)c2ccc3[nH]c4c(c3c2)CCCC4)CC1 |  | inconclusive: 7.08 µM [inhibitor, partial curve, poor fit] |
| O=S(=O)(NC(=S)NC1CCCCC1)c1ccccc1 | inactive: 14% [at 46.1 µM] |  |
| CC(C)CN1C(=O)c2ccc(C(=O)Nc3ccccc3C(=O)O)cc2C1=O |  | inconclusive: 10 µM [inhibitor, partial curve] |
| COc1ccccc1CNC(=O)CSc1cc(C)[nH]c(=O)n1 | inactive: 1.66% [at 46.1 µM] |  |
| COC(CNC(=O)c1cc(C)nn1-c1ccccc1)OC |  | inconclusive: 5.17 µM [activator, partial curve] |
| O=C(O)CCC(=O)c1ccc(-c2ccccc2)cc1 | inactive: -5.12% |  |
| CNc1sc(C(=O)c2cccs2)c(N)c1-c1nc2ccccc2s1 |  | inconclusive: 35.5 µM [inhibitor, single point] |
| CCNC(=O)NC(=O)C(C)OC(=O)C(C)(C)Oc1ccc(Cl)cc1 (configuration not stated) |  | inconclusive: 25.1 µM [inhibitor, single point] |
| CCN1C=C(Cc2ccccc2C)C2=C(C1)C(c1ccccc1C)C(C#N)=C(N)O2 (configuration not stated) | inactive: -22.1% |  |
